Protein sequences can lack the tags named with them. For at least one entry, the source does not settle the construct or the ends of the probe.
Assays:
DEK (Homo sapiens) = molecular target: T1, DEK (Homo sapiens) (UniProt P35659); experiment: SELEX; details: described as high affinity, binds tightly; binding buffer 20 mM Tris pH 7.6, 100 mM NaCl, 5 mM MgCl2, room temperature; purified recombinant protein; single-stranded DNA; variant of DEK aptamer 64
T1 sequence (looked up, limits assumed): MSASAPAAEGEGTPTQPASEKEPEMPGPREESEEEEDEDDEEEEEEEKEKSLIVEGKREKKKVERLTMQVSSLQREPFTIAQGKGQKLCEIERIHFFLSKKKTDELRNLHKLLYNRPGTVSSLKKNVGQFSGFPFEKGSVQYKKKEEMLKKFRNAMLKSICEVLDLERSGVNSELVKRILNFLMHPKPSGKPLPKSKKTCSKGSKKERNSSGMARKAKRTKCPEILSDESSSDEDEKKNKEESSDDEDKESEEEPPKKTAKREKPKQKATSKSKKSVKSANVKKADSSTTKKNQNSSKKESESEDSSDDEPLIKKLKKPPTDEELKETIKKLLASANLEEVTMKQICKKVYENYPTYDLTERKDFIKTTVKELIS

[1] = molecular target: T2, DEK (endogenous, mouse knee joint) (Mus musculus) (UniProt Q7TNV0); experiment: activity in cells; details: in vivo zymosan-induced arthritis; 5, 50 and 100 ng/knee significantly reduce joint inflammation vs control aptamer; protein in cells; single-stranded DNA; variant of DEK aptamer 64
T2 sequence (looked up, limits assumed): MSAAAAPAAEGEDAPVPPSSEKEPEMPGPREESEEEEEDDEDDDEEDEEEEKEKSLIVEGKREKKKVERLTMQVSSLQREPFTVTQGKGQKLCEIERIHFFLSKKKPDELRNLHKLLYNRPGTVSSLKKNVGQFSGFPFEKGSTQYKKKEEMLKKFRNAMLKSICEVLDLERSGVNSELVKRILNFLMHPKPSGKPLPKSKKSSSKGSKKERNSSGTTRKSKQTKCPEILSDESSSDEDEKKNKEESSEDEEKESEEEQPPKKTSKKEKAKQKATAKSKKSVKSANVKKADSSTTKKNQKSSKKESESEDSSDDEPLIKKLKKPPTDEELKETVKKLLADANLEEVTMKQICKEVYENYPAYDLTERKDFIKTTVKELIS

[2] = molecular target: T3, DEK (endogenous, released by activated neutrophils) (Homo sapiens) (UniProt P35659); experiment: activity in cells; details: protein in cells, single-stranded DNA
T3 sequence (looked up, limits assumed): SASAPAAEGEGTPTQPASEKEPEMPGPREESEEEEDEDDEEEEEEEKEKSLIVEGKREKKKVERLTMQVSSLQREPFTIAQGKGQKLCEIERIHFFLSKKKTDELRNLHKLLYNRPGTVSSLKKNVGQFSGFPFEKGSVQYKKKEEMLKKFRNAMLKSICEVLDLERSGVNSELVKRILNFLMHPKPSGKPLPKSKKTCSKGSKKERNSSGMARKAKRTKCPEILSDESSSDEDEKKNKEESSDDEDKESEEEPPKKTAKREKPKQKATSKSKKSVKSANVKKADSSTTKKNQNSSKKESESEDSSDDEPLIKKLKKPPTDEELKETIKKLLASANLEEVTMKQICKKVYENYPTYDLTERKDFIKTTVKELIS

[3] = impedes NET formation by activated human neutrophils, aptamers at 1-50 ng/ml

Sequence: GGGGTTAAATATTCCCACATTGCCTGCGCCAGTACAAATAG [DTA 64 (40-nt core)]
- selection result (DEK (Homo sapiens)): selected
- functional effect of the aptamer [1]: active
- functional effect of the aptamer ([2]; dose-dependent block of PMA-induced NETs in human neutrophils, variant of DEK aptamer 64, dose not given here): active

Sequence: ATAGGGAGTCGACCGACCAGAAGGGGTTAAATATTCCCACATTGCCTGCGCCAGTACAAATAGTATGTGCGTCTACATCTAGACT [DEK aptamer 64]
- functional effect of the aptamer [2, 3]: active

Sequence: ATAGGGAGTCGACCGACCAGAATACCGTGGCATCTGGTTGTAGCATCACGTCTTATGCGGCCGTATGTGCGTCTACATCTAGACT [DEK aptamer 85]
- functional effect of the aptamer [2, 3]: active

Reference: patent publication US20180187196, “INHIBITORS OF DEK PROTEIN AND RELATED METHODS” (THE REGENTS OF THE UNIVERSITY OF MICHIGAN, published 2018)
